Patent US20240376153A1 (Igisu Co., Ltd., priority 2015, published 2024)
No end group written: not given here.

Assay: peptide synthesis
Settings: whole synthesis, UV 215 nm

Question: For “CFGLKLDRIGSMSGLGC (cysteine pairing not given here)”, which “final HPLC purity” value is on record?
Answer: 99.2%
